Measured values taken from US8895564B2, “Biguanide derivative compound” (Nihon University, priority 2010, dated 2014).
Some results were stated once for a whole list of compounds, not compound by compound. At least one compound was matched to its structure with a doubt left.

Molecular target: T1, ASIC1a (Homo sapiens, UniProt P78348)
T1 construct: expressed in transfected cells; host or cells: Xenopus laevis oocytes injected with capped cRNA
T1 sequence (P78348 1-528): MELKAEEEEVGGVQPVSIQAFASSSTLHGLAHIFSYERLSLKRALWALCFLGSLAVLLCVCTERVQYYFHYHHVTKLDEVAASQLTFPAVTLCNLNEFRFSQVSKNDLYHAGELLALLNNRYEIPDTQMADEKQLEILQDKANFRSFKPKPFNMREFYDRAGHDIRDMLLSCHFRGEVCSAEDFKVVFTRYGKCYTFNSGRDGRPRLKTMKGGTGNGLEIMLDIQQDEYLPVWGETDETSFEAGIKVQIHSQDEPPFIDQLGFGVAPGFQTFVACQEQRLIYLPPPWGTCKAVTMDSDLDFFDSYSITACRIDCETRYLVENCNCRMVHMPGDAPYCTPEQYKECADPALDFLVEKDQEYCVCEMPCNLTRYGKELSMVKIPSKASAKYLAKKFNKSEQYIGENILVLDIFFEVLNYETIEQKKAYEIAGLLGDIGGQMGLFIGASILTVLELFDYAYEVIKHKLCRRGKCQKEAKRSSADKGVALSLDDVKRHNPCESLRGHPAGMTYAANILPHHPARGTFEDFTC
Assay: Inhibition of ASIC1a current in ASIC1a-expressing Xenopus laevis oocytes, two-electrode voltage clamp method
Type: cell-based
Conditions: at a concentration of 30 μM
Procedure: (1) Preparation of the ASIC1a-expressing Xenopus laevis oocytes
Using the RNeasy Protect Mini Kit (QIAGEN), total RNA was prepared from HEK293 cells. Subsequently, using the High Fidelity RNA PCR kit (TAKARA BIO INC.), first strand cDNA was synthesized, and using this first strand cDNA as a template, PCR was performed. The sense-strand primer for PCR was: […] (SEQ ID NO: 1) and the antisense-strand primer for PCR was: […] (SEQ ID NO: 2), and the PCR conditions were such that one cycle consisting of 95° C. for 30 seconds, 55° C. for 30 seconds, and 72° C. for 90 seconds was repeated 30 cycles. The PCR product was inserted into the PCR2.1 vector, and the resulting vector was further subcloned into the pcDNA3.1 (−) vector. From the ASIC1a plasmid which was linearized by the BamHI enzyme, capped cRNA was synthesized using the mMessage mMachine Kits (Ambion).

Row | SMILES | inhibitory activity on ASIC1a
1 | CCCCCCCCNC(=N)NC(=N)NNC(=O)c1nc(Cl)c(N)nc1N [Example 14] | confirmed to have inhibitory activities
2 | CCCCNC(=N)NC(=N)NNC(=O)c1nc(Cl)c(N)nc1N [Example 18] | confirmed to have inhibitory activities
3 | N=C(NCc1ccc(Cl)cc1)NC(=N)NNC(=O)c1nc(Cl)c(N)nc1N [Example 22] | confirmed to have inhibitory activities
4 | CCCCCNC(=N)NC(=N)NNC(=O)c1nc(Cl)c(N)nc1N [Example 25] | confirmed to have inhibitory activities
5 | CCCCCCNC(=N)NC(=N)NNC(=O)c1nc(Cl)c(N)nc1N [Example 10] | confirmed to have inhibitory activities
